Data on two compounds can be found in patent US20250203808A1, “REFRIGERANTS FOR AND METHODS OF COOLING ELECTRONICS” (HONEYWELL INTERNATIONAL INC., priority 2023, published 2025).

A short description of the data set: Global Warming Potential (GWP).

A value given as a limit tells only on which side of the number the result lay.

For the compound `F/C=C\C(F)(C(F)(F)F)C(F)(F)F` [HFO-1438ezy(Z), (Z)-1,3,4,4,4-pentafluoro-(3-trifluoromethyl)-but-1-ene], the GWP is, setting by setting: (Table 1) under 10; (Table E1) under 10.
In the case of `F/C=C/C(F)(C(F)(F)F)C(F)(F)F` [HFO-1438ezy(E), (E)-1,3,4,4,4-pentafluoro-(3-trifluoromethyl)-but-1-ene], the GWP is listed as under 10 (Table 1) and under 10 (Table E1).
